According to paper PMC7819943, “Rice protein-binding microarrays: a tool to detect cis-acting elements near promoter regions in rice”:
This is one part of the list.

By UniProt entry, the sequences of proteins in these tests, tags left out.
UniProt Q0JBA9, entry or part of it: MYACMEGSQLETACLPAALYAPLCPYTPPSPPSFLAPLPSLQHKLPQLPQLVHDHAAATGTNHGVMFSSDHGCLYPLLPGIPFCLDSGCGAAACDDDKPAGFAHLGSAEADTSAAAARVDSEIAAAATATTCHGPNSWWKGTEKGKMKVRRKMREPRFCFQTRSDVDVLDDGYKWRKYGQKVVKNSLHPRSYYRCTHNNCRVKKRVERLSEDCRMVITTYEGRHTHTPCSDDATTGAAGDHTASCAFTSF

Target: OsWRKY34 (Oryza sativa, UniProt Q0JBA9 1-250)
Assay: protein-binding microarray (RPBM); PBS, 2% BSA, 51.3 ng/ul salmon testes DNA, 50 uM zinc acetate, 200 nM TF, 25 C, 1 h; high values mean tight binding
Conditions: protein: recombinant; tags: N-terminal polyhistidine and DsRed monomer fusion (pET32a); label: CyDye5-dUTP incorporated in the synthesized complementary strand; 3' TTTTT single-stranded linker to array surface; dsDNA, one strand shown
In short: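 In PBS with 2% BSA, salmon testes DNA and 50 µM zinc acetate, 200 nM protein was incubated on a custom Agilent array at 25 °C for 1 h and then washed off. The array had been made double-stranded by primer extension with Cy5-dUTP and blocked with 2% BSA. The proteins were transcription factors fused N-terminally to polyhistidine and DsRed, expressed in E. coli BL21-CodonPlus and purified on Ni–NTA. The binding signal is per-feature fluorescence intensity (arbitrary units) from an Axon 4000B scanner.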

Row | Sequence | binding signal
1 | CCACCACCTCGCCATCGACCGTCCATCCAGGTCACCCCGACGGAGTCACCTAGTGCAG | 8180 fluorescence intensity (a.u.)
2 | GGCTGGCTACCCACCCACCGAACGGCGTGCGCGCGGACAACGGAGTCACCTAGTGCAG | 8340 fluorescence intensity (a.u.)
3 | TCCTTCTTTTACCGGCGTCACGTATAATTGCAGGTTGGCTCGGAGTCACCTAGTGCAG | 8830 fluorescence intensity (a.u.)
4 | CTTGTCAACCTAACCTGAACCCTTTTGCACACACACACACCGGAGTCACCTAGTGCAG | 11200 fluorescence intensity (a.u.)
5 | ACACATGTCTTGCAGTACCCGTTTACTCTTTATTCCCATGCGGAGTCACCTAGTGCAG | 12000 fluorescence intensity (a.u.)
6 | CATTCCTATCAAAATCCTACGTTTTTCCTATTCCTACGTTCGGAGTCACCTAGTGCAG | 9840 fluorescence intensity (a.u.)
7 | GGCCGCCTCCTCGCCGTCGTCTCCTCTCCTCTCACTTGTCCGGAGTCACCTAGTGCAG | 9850 fluorescence intensity (a.u.)
8 | CAACACATTCTCTGTCTCTCTCTCGCTTTCTAGTTCTTGGCGGAGTCACCTAGTGCAG | 10300 fluorescence intensity (a.u.)
9 | TGTCTTTCCCACCATCTGTCGCGCCTCCAACGACTCTCGCCGGAGTCACCTAGTGCAG | 8840 fluorescence intensity (a.u.)
10 | ACTTTGTCACTTGACTTATTCTCTGGCCGTGCGTATAAATCGGAGTCACCTAGTGCAG | 8150 fluorescence intensity (a.u.)
11 | GTTGTGTTCACCTCACCACTATCACTGAACATTCCTCTTACGGAGTCACCTAGTGCAG | 10100 fluorescence intensity (a.u.)
12 | CGTCGTTGCTAAGAAATCGGCGCCGTGCTCCTCTTCTCTTCGGAGTCACCTAGTGCAG | 8190 fluorescence intensity (a.u.)
13 | TCTCTCGCCGATTCCGCCACCGCCGCCGCGCCGCGCCTCGCGGAGTCACCTAGTGCAG | 9420 fluorescence intensity (a.u.)
14 | GATGTTAAGTTTTGGGCATATGATTGAATTGTCTTATATACGGAGTCACCTAGTGCAG | 8080 fluorescence intensity (a.u.)
15 | CAAACGGTAGGGGTATGTAGGGGATCCAATCGAAAATTTACGGAGTCACCTAGTGCAG | 8390 fluorescence intensity (a.u.)
16 | ACCGGTTTGACCACGCCACTTCCTGCACCAGTCCACATACCGGAGTCACCTAGTGCAG | 8250 fluorescence intensity (a.u.)
17 | GTAGTTGTATCATTTTTGTTTTCTTGTGAGATGCCAATCACGGAGTCACCTAGTGCAG | 8560 fluorescence intensity (a.u.)
18 | TCTGGGATTTTTTTTCTGCATTTAGGGGTACTGTTTCCATCGGAGTCACCTAGTGCAG | 11200 fluorescence intensity (a.u.)
19 | CATCACATCATCATTCCATCCCATTCATCCCTATCCTTCACGGAGTCACCTAGTGCAG | 9300 fluorescence intensity (a.u.)
20 | GCTCAGCTACTCATCACCACACACGCACAGTAGCTTAGCACGGAGTCACCTAGTGCAG | 8760 fluorescence intensity (a.u.)
21 | CATTCTTGTCTGTAGCTTATTTGTTCGTGTTCATTAGTTTCGGAGTCACCTAGTGCAG | 13500 fluorescence intensity (a.u.)

Nos. 10–12 from above:
Row | Sequence | binding signal
10 | ACTTTGTCACTTGACTTATTCTCTGGCCGTGCGTATAAATCGGAGTCACCTAGTGCAG | 8150 fluorescence intensity (a.u.)
11 | GTTGTGTTCACCTCACCACTATCACTGAACATTCCTCTTACGGAGTCACCTAGTGCAG | 10100 fluorescence intensity (a.u.)
12 | CGTCGTTGCTAAGAAATCGGCGCCGTGCTCCTCTTCTCTTCGGAGTCACCTAGTGCAG | 8190 fluorescence intensity (a.u.)

(continued)

Row | Sequence | binding signal
22 | GTTATGGGTTTGATTTTTTTTCGTTTAGAAAGTTATGGGTCGGAGTCACCTAGTGCAG | 9220 fluorescence intensity (a.u.)
23 | GGGCTGGGGAAAATGATCGACTACTTTTAACCATTTCAGTCGGAGTCACCTAGTGCAG | 8200 fluorescence intensity (a.u.)
24 | GCAGTCCAAGTCCAAGTCCAAGTCCAAGCGCTAATAAATTCGGAGTCACCTAGTGCAG | 8440 fluorescence intensity (a.u.)
25 | TCTTTTTTTTTTTTTTTTGCTTCTGATCATGCAAAGCACCCGGAGTCACCTAGTGCAG | 8150 fluorescence intensity (a.u.)
26 | CTACCATCCGTCGCGGCCGGCCCCATCCCTCATGTGCGACCGGAGTCACCTAGTGCAG | 12400 fluorescence intensity (a.u.)
27 | CGACTGTTGATTTCGTGAATCCTTTTAATGCAGCCTCGTACGGAGTCACCTAGTGCAG | 10300 fluorescence intensity (a.u.)
28 | CCGCCTCGAGTCCGTCCGTCGCTTCCTCTCTCTCTACTTGCGGAGTCACCTAGTGCAG | 8540 fluorescence intensity (a.u.)
29 | TAGGGTCATGAATTAGATTTGGGTCACTTTTAAGGAAGTCCGGAGTCACCTAGTGCAG | 8060 fluorescence intensity (a.u.)
30 | GATTTTGAGTTTTTTTCTTGCAACATTTGACCACTCATCTCGGAGTCACCTAGTGCAG | 12700 fluorescence intensity (a.u.)
31 | TGTTTTCCGCGCACACGCATTTATTCTCAAACTCCTAAATCGGAGTCACCTAGTGCAG | 8370 fluorescence intensity (a.u.)
32 | GCCATGCCACACATCATGCCACACATTTGCCGTTTTCTTACGGAGTCACCTAGTGCAG | 14200 fluorescence intensity (a.u.)
33 | TAATAGTTTTCTCATTTGCGTGCTCGTACTTAATCTTCATCGGAGTCACCTAGTGCAG | 10100 fluorescence intensity (a.u.)
34 | TTTCCATTGTTCAGGTAGGGTGGGAATAGGATGTGCTAGACGGAGTCACCTAGTGCAG | 10700 fluorescence intensity (a.u.)
35 | TCATTGTCGTTGGACTACACTTATTTTCCCATTTCTATCTCGGAGTCACCTAGTGCAG | 10900 fluorescence intensity (a.u.)
36 | TGTGGTTGTGGGAGGTGATTCAATCAGGGGCAAAAGGTGACGGAGTCACCTAGTGCAG | 13000 fluorescence intensity (a.u.)
37 | CCACCTCCAACAACAACGGCCTTGTCATTTCCTCTACCGCCGGAGTCACCTAGTGCAG | 8570 fluorescence intensity (a.u.)
38 | TCCACCACCCGCCGCACCGCCGGAAATTCCAGGTCCACCGCGGAGTCACCTAGTGCAG | 8340 fluorescence intensity (a.u.)
39 | GGGGACATACTTCTCGCAAATGTCTGCGCTACAGTGCTACCGGAGTCACCTAGTGCAG | 9150 fluorescence intensity (a.u.)
40 | AGTTTGTTTTTTTTCTGTCCTTGACATGGCCATTTTGTTACGGAGTCACCTAGTGCAG | 9920 fluorescence intensity (a.u.)
41 | TTTTAGCTGGCTAATAGCCTGCTATTGTACCGGCTCTTATCGGAGTCACCTAGTGCAG | 8680 fluorescence intensity (a.u.)
42 | GTCTTCCTCGCCACCACCATCTGTCAACTGCGACGACATGCGGAGTCACCTAGTGCAG | 8700 fluorescence intensity (a.u.)
